From publication PMC5612983
These are yes or no findings as the source states them, for the method shown. Binding seen in cells or lysates may run through a third protein. Some entries that bind do so weakly or less than the wild type.

How the values were obtained:
[1] = target: T1, contactin 1 (rat (endogenous in PC12)) (UniProt Q63198); test: co-IP; PC12 cells reversibly cross-linked with DSP, lysed in PBS, 5 mM EDTA, 0.5% Triton X-100; supernatants incubated with anti-Gal-4 or anti-contactin 1 antibodies at 4 °C for 18 hours, bound to protein-A- or protein-G-Sepharose; SDS-PAGE and WB for contactin 1 or Gal-4
T1 sequence: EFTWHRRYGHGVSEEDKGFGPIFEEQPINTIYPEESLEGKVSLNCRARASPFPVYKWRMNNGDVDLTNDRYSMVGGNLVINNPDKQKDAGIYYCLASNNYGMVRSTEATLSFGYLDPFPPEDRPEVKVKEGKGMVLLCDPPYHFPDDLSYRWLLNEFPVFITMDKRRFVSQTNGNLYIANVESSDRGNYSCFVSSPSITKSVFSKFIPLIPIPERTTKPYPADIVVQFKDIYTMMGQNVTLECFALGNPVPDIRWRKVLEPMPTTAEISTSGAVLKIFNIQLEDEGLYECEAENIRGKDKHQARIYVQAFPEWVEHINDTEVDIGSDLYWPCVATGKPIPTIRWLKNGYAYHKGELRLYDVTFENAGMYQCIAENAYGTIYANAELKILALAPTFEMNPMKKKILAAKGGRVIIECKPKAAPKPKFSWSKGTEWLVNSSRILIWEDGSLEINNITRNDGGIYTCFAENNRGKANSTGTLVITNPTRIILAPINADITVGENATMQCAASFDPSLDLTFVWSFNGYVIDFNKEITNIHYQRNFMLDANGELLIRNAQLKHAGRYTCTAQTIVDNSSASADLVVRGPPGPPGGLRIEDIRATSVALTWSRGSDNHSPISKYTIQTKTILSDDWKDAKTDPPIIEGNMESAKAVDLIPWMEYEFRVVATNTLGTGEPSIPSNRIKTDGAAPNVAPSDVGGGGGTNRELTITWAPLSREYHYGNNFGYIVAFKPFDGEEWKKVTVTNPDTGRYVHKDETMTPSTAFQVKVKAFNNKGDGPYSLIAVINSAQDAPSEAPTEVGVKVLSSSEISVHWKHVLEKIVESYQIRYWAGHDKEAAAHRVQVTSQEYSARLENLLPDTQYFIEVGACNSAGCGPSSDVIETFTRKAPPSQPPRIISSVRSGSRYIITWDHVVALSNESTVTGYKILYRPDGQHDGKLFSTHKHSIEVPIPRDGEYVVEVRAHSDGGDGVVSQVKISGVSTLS

[2] = target: T2, galectin-4 (rat (endogenous in PC12)) (UniProt P38552); test: as above
T2 sequence: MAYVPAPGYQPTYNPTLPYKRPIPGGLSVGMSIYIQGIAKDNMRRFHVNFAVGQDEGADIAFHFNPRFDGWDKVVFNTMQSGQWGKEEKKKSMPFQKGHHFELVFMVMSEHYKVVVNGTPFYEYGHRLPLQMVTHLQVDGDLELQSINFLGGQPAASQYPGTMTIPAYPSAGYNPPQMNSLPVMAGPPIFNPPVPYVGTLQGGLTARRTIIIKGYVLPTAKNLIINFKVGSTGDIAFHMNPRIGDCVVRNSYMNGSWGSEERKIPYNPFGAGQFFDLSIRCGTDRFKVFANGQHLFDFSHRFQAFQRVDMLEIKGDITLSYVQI

B1: galectin-4 (protein, UniProt P38552 1-324)
chain: T2 sequence
[1]
  binding: binds

B2: contactin 1 (protein, UniProt Q63198 21-1001)
chain: T1 sequence
[2]
  binding: binds
